Here are results for 1 molecule from article PMC8307904, “Synthesis and Structure of Novel Copper(II) Complexes with N,O- or N,N-Donors as Radical Scavengers and a Functional Model of the Active Sites in Metalloenzymes” (International Journal of Molecular Sciences, 2021).

Experiment [1] relates to A549 (non-small cell lung carcinoma). As to the kind of experiment: in vitro cytotoxicity / proliferation, A549. The class given is cell-based, human. The conditions noted are these: read-out: IC50 (inhibits proliferation of 50% of cells). An excerpt:
(§1) For IC50 determination, the human cancer lines A549 (non-small cell lung carcinoma), HT29 (colon adenocarcinoma) and MCF-7 (breast adenocarcinoma), and a healthy mouse fibroblast cell line (BALB/3T3), were used. All tested cell lines were obtained from the American Type Culture Collection (Rockville, MD, USA) and maintained at the Cell Culture Collection of the Hirszfeld Institute of Immunology and Experimental Therapy (Wrocław, Poland). The details of the experimental conditions were described in [69]. […] IC50 values were calculated separately for each experiment, which was repeated 3–5 times.

Experiment [2] has as its system MCF-7 (breast adenocarcinoma). Description: in vitro cytotoxicity / proliferation, MCF-7. Particulars: read-out: IC50 (inhibits proliferation of 50% of cells). It counts as cell-based, human.
Excerpt: as §1

On to `N.N.[Cl][Pt][Cl]` [cisplatin, reference compound], for which the IC50 in experiment [1] was 3.03 ± 0.2 µM; in experiment [2], 8.2 ± 0.48 µM.
